Laboratory results published in paper PMC9998662.
These are yes or no findings as the source states them, for the method shown. In cells and extracts the contact can be indirect. Some binding calls cover weakened binding; strength is not graded here. Where a sequence is shown, tags or fusion partners need not be part of it.

Molecular target: T1, MIM-3xFLAG (Mus musculus) (UniProt Q8R1S4)
T1 sequence: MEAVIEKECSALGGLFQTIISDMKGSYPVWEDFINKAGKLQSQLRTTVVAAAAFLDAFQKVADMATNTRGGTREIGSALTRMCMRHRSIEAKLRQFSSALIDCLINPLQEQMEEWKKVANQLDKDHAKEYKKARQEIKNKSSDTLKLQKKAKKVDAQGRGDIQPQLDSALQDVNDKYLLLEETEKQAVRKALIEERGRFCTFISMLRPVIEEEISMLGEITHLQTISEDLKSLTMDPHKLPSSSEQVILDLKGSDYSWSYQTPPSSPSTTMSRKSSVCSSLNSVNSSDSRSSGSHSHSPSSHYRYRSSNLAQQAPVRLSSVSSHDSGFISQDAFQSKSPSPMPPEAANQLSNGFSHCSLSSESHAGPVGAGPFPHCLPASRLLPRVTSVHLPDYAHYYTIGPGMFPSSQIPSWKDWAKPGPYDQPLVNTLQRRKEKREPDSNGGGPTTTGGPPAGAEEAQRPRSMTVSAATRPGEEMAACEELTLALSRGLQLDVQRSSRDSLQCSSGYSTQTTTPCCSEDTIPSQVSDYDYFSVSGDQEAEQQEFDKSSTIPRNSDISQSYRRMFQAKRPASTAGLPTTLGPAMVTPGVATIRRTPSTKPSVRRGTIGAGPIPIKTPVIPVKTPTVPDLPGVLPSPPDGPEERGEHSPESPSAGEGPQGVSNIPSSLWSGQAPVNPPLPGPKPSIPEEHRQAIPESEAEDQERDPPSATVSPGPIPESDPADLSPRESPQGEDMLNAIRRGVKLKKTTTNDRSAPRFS
Test: co-IP; HEK293T co-transfected with MIM-3xFLAG and EVL constructs; IP with anti-FLAG antibody, Protein A/G beads; IP buffer 10% glycerol, 1% NP-40, 50 mM Tris pH 7.5, 200 mM NaCl, 2 mM MgCl2; overnight at 4°C; western blot

- binding: binds
B1: full-length EVL (overexpressed in HEK293T) (protein, UniProt P70429 1-414)
chain: MSEQSICQARASVMVYDDTSKKWVPIKPGQQGFSRINIYHNTASSTFRVVGVKLQDQQVVINYSIVKGLKYNQATPTFHQWRDARQVYGLNFASKEEATTFSNAMLFALNIMNSQEGGPSTQRQVQNGPSPEEMDIQRRQVMEQQHRQESLERRISATGPILPPGHPSSAASTTLSCSGPPPPPPPPVPPPPTGSTPPPPPPLPAGGAQGTNHDESSASGLAAALAGAKLRRVQRPEDASGGSSPSGTSKSDANRASSGGGGGGLMEEMNKLLAKRRKAASQTDKPADRKEDESQTEDPSTSPSPGTRATSQPPNSSEAGRKPWERSNSVEKPVSSLLSRTPSVAKSPEAKSPLQSQPHSRVKPAGSVNDVGLDALDLDRMKQEILEEVVRELHKVKEEIIDAIRQELSGISTT
